Test results as given in the supplement of paper PMC4604168 (melanoma cell lines).
Some of the results follow. Many values rest on one well or one pass, so single values are uncertain.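 The apoptosis fraction was the count of cleaved-PARP antibody-stained nuclei relative to all DNA-stained nuclei, imaged in 1,536-well plates. Screening doses were set so most cells survived, and baseline and induced cleaved-PARP levels vary greatly across cell lines.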

Key:
Test in all cases: cleaved PARP positive nuclei fraction relative to DMSO control; melanoma cells; higher = more apoptosis
Conditions in all cases: library dose: low library concentration; 72 h
WM115 = test system: WM115
WM1716 = test system: WM1716
WM1745 = test system: WM1745
WM3526 = test system: WM3526
WM3619 = test system: WM3619
WM451Lu = test system: WM451Lu

Compound	cleaved PARP positive nuclei fraction (WM115) [%]	cleaved PARP positive nuclei fraction (WM1716) [%]	cleaved PARP positive nuclei fraction (WM1745) [%]	cleaved PARP positive nuclei fraction (WM3526) [%]	cleaved PARP positive nuclei fraction (WM3619) [%]	cleaved PARP positive nuclei fraction (WM451Lu) [%]
COc1ccc2c(c1)CCC1C2CCC2(C)C(NCCCCCCN3C(=O)C=CC3=O)CCC12 (stereo not drawn) + CCN(CC)CCCCNc1ncc2cc(-c3cc(OC)cc(OC)c3)c(NC(=O)NC(C)(C)C)nc2n1 [PD173074] (first compound 0.4 µM, partner dose 0.1 µM)	71.6	63.3	121	73.6	83.2	60.4
COc1cc2ncnc(Nc3ccc(Oc4ccccc4)cc3)c2cc1OC + O=C(O)C(=O)Nc1sc2c(c1C(=O)O)CCNC2 [TCS401] (first compound 2 µM, partner dose 1.66667 µM)	76.7	48.7	108	63.6	74.4	56.3
COc1cc2ncnc(Nc3ccc(Oc4ccccc4)cc3)c2cc1OC + Oc1cc(-c2nc(-c3ccccc3)[nH]c2-c2ccncc2)ccc1Cl [L779450] (first compound 2 µM, partner dose 0.2 µM)	110	36.5	134	39.7	80.7	123
CN(NC(=O)CC(=O)NN(C)C(=S)c1ccccc1)C(=S)c1ccccc1 + Cn1cc(/C=C2\C(=O)Nc3cccnc32)c2ccccc21 [GW441756] (first compound 0.006 µM, partner dose 0.4 µM)	197	112	311	163	147	104
CN(C)S(=O)(=O)c1ccc2c(c1)/C(=C/c1cc3c([nH]1)CCCC3)C(=O)N2 + COC(=O)c1sccc1S(=O)(=O)Nc1ccc(Nc2ccccc2)cc1OC [GSK0660] (first compound 0.4 µM, partner dose 1 µM)	265	81.8	349	68.8	72	55.2
COc1cc2c(Oc3ccc4[nH]c(C)cc4c3F)ncnc2cc1OCCCN1CCCC1 [cediranib] + O=C(Nc1ccccc1)c1cc([N+](=O)[O-])ccc1Cl [GW9662] (first compound 0.4 µM, partner dose 2 µM)	98	67.1	109	142	60.2	56.2
COc1cc2ncnc(Nc3ccc(Oc4ccccc4)cc3)c2cc1OC + Oc1nc(-c2ccc(C(F)(F)F)cc2)nc2c1CSCC2 [XAV939] (first compound 2 µM, partner dose 2 µM)	75.4	101	127	71.3	89.9	57
NCC(=O)Nc1ccc(-n2nc(C(F)(F)F)cc2-c2ccc3c(ccc4ccccc43)c2)cc1 + Oc1cc(-c2nc(-c3ccccc3)[nH]c2-c2ccncc2)ccc1Cl [L779450] (first compound 1 µM, partner dose 0.2 µM)	176	137	106	102	75.7	397
COc1cc2ncnc(Nc3ccc(Oc4ccccc4)cc3)c2cc1OC + COc1cc(N2CCC(N3CCN(C)CC3)CC2)ccc1Nc1ncc(Cl)c(Nc2ccccc2S(=O)(=O)C(C)C)n1 [NVP-TAE684] (first compound 2 µM, partner dose 0.08 µM)	108	57.3	131	122	97.3	110
NCC(=O)Nc1ccc(-n2nc(C(F)(F)F)cc2-c2ccc3c(ccc4ccccc43)c2)cc1 + Cc1cc([N+](=O)[O-])ccc1NS(=O)(=O)c1cc(Cl)ccc1Cl [FH535] (first compound 1 µM, partner dose 1 µM)	141	153	214	132	82.4	81.6
N#Cc1c(O)c2c(-c3ccc(-c4ccccc4O)cc3)csc2[nH]c1=O + COc1cc2ncnc(Nc3ccc(Oc4ccccc4)cc3)c2cc1OC [SrcI1] (first compound 2 µM, partner dose 2 µM)	67	127	114	65.7	70.8	105
CN(NC(=O)CC(=O)NN(C)C(=S)c1ccccc1)C(=S)c1ccccc1 + O=c1cc(-c2cccc3c2Sc2ccccc2S3)oc(N2CCOCC2)c1 [KU55933] (first compound 0.006 µM, partner dose 1 µM)	313	114	169	69.3	118	54.5
CN(C)S(=O)(=O)c1ccc2c(c1)/C(=C/c1cc3c([nH]1)CCCC3)C(=O)N2 + COc1cc2ncnc(Nc3ccc(Oc4ccccc4)cc3)c2cc1OC [SrcI1] (first compound 0.4 µM, partner dose 2 µM)	88.2	72.2	110	160	91.4	121
Oc1cc(-c2nc(-c3ccccc3)[nH]c2-c2ccncc2)ccc1Cl + c1cc(-c2cnn3cc(-c4ccc(OCCN5CCCCC5)cc4)cnc23)ccn1 [Dorsomorphin] (first compound 0.2 µM, partner dose 0.4 µM)	393	66.7	113	116	83.5	63.4
COc1ccc2c(c1)CCC1C2CCC2(C)C(NCCCCCCN3C(=O)C=CC3=O)CCC12 (stereo not drawn) + Oc1cc(-c2nc(-c3ccccc3)[nH]c2-c2ccncc2)ccc1Cl [L779450] (first compound 0.4 µM, partner dose 0.2 µM)	155	57.1	296	80	117	56.1
CN(C)S(=O)(=O)c1ccc2c(c1)/C(=C/c1cc3c([nH]1)CCCC3)C(=O)N2 + Cn1cc(/C=C2\C(=O)Nc3cccnc32)c2ccccc21 [GW441756] (first compound 0.4 µM, partner dose 0.4 µM)	147	87.6	91.1	59.7	69.1	17.9
NCC(=O)Nc1ccc(-n2nc(C(F)(F)F)cc2-c2ccc3c(ccc4ccccc43)c2)cc1 + O=c1cc(-c2cccc3c2Sc2ccccc2S3)oc(N2CCOCC2)c1 [KU55933] (first compound 1 µM, partner dose 1 µM)	119	105	88.3	321	77.9	100
O=C(O)c1ccc(-c2c[nH]c3ncc(-c4ccccc4)cc23)cc1C1CCCC1 + COc1cc2c(Oc3ccc4[nH]c(C)cc4c3F)ncnc2cc1OCCCN1CCCC1 [cediranib] (first compound 0.16 µM, partner dose 0.4 µM)	28.7	146	85	166	99	62
CN(C)S(=O)(=O)c1ccc2c(c1)/C(=C/c1cc3c([nH]1)CCCC3)C(=O)N2 + CC(C)CCN1c2nc(Nc3cc(F)c(O)c(F)c3)ncc2N(C)C(=O)C1C [BID1870] (first compound 0.4 µM, partner dose 0.2 µM)	393	49	105	67	72.3	329
c1cc(-c2cnn3cc(-c4ccc(OCCN5CCCCC5)cc4)cnc23)ccn1 [Dorsomorphin] + CCCCCCCCCCCC1=C(O)C(=O)C=C(O)C1=O [Embelin] (first compound 0.4 µM, partner dose 1.2 µM)	136	35.7	111	60.7	73.6	124
COc1cc2c(Oc3ccc4[nH]c(C)cc4c3F)ncnc2cc1OCCCN1CCCC1 [cediranib] + O=c1cc(-c2cccc3c2Sc2ccccc2S3)oc(N2CCOCC2)c1 [KU55933] (first compound 0.4 µM, partner dose 1 µM)	104	65.5	88.4	64.7	75.5	504
NCC(=O)Nc1ccc(-n2nc(C(F)(F)F)cc2-c2ccc3c(ccc4ccccc43)c2)cc1 + COc1ccc(-c2ccc3c(N4CCOCC4)nc(N4C[C@@H](C)O[C@@H](C)C4)nc3n2)cc1CO [KU0063794] (first compound 1 µM, partner dose 0.02 µM)	84.3	183	106	138	77.5	84
CN(NC(=O)CC(=O)NN(C)C(=S)c1ccccc1)C(=S)c1ccccc1 + CCN(CC)CCCCNc1ncc2cc(-c3cc(OC)cc(OC)c3)c(NC(=O)NC(C)(C)C)nc2n1 [PD173074] (first compound 0.006 µM, partner dose 0.1 µM)	229	233	295	219	269	28.3
CN(C)S(=O)(=O)c1ccc2c(c1)/C(=C/c1cc3c([nH]1)CCCC3)C(=O)N2 + CCN(CC)CCCCNc1ncc2cc(-c3cc(OC)cc(OC)c3)c(NC(=O)NC(C)(C)C)nc2n1 [PD173074] (first compound 0.4 µM, partner dose 0.1 µM)	246	82	109	243	68.5	87.1
COc1ccc(-c2ccc3c(N4CCOCC4)nc(N4C[C@@H](C)O[C@@H](C)C4)nc3n2)cc1CO + Cc1cc([N+](=O)[O-])ccc1NS(=O)(=O)c1cc(Cl)ccc1Cl [FH535] (first compound 0.02 µM, partner dose 1 µM)	96.4	86	108	47.7	118	82.5
COc1ccc(-c2ccc3c(N4CCOCC4)nc(N4C[C@@H](C)O[C@@H](C)C4)nc3n2)cc1CO + COc1cc(N2CCC(N3CCN(C)CC3)CC2)ccc1Nc1ncc(Cl)c(Nc2ccccc2S(=O)(=O)C(C)C)n1 [NVP-TAE684] (first compound 0.02 µM, partner dose 0.08 µM)	142	101	97.1	40.1	85.1	93.3
COc1ccc(-c2ccc3c(N4CCOCC4)nc(N4C[C@@H](C)O[C@@H](C)C4)nc3n2)cc1CO + Cn1cc(/C=C2\C(=O)Nc3cccnc32)c2ccccc21 [GW441756] (first compound 0.02 µM, partner dose 0.4 µM)	101	89.6	120	35.6	99	142
COC(=O)c1sccc1S(=O)(=O)Nc1ccc(Nc2ccccc2)cc1OC + CCN(CC)CCCCNc1ncc2cc(-c3cc(OC)cc(OC)c3)c(NC(=O)NC(C)(C)C)nc2n1 [PD173074] (first compound 1 µM, partner dose 0.1 µM)	154	56.6	112	53.3	80.8	211

Exported with bars between the fields: entries from further up
Compound | cleaved PARP positive nuclei fraction (WM115) [%] | cleaved PARP positive nuclei fraction (WM1716) [%] | cleaved PARP positive nuclei fraction (WM1745) [%] | cleaved PARP positive nuclei fraction (WM3526) [%] | cleaved PARP positive nuclei fraction (WM3619) [%] | cleaved PARP positive nuclei fraction (WM451Lu) [%]
COc1cc2ncnc(Nc3ccc(Oc4ccccc4)cc3)c2cc1OC + O=C(O)C(=O)Nc1sc2c(c1C(=O)O)CCNC2 [TCS401] (first compound 2 µM, partner dose 1.66667 µM) | 76.7 | 48.7 | 108 | 63.6 | 74.4 | 56.3
COc1cc2ncnc(Nc3ccc(Oc4ccccc4)cc3)c2cc1OC + Oc1cc(-c2nc(-c3ccccc3)[nH]c2-c2ccncc2)ccc1Cl [L779450] (first compound 2 µM, partner dose 0.2 µM) | 110 | 36.5 | 134 | 39.7 | 80.7 | 123
CN(NC(=O)CC(=O)NN(C)C(=S)c1ccccc1)C(=S)c1ccccc1 + Cn1cc(/C=C2\C(=O)Nc3cccnc32)c2ccccc21 [GW441756] (first compound 0.006 µM, partner dose 0.4 µM) | 197 | 112 | 311 | 163 | 147 | 104
CN(C)S(=O)(=O)c1ccc2c(c1)/C(=C/c1cc3c([nH]1)CCCC3)C(=O)N2 + COC(=O)c1sccc1S(=O)(=O)Nc1ccc(Nc2ccccc2)cc1OC [GSK0660] (first compound 0.4 µM, partner dose 1 µM) | 265 | 81.8 | 349 | 68.8 | 72 | 55.2
COc1cc2c(Oc3ccc4[nH]c(C)cc4c3F)ncnc2cc1OCCCN1CCCC1 [cediranib] + O=C(Nc1ccccc1)c1cc([N+](=O)[O-])ccc1Cl [GW9662] (first compound 0.4 µM, partner dose 2 µM) | 98 | 67.1 | 109 | 142 | 60.2 | 56.2
COc1cc2ncnc(Nc3ccc(Oc4ccccc4)cc3)c2cc1OC + Oc1nc(-c2ccc(C(F)(F)F)cc2)nc2c1CSCC2 [XAV939] (first compound 2 µM, partner dose 2 µM) | 75.4 | 101 | 127 | 71.3 | 89.9 | 57
NCC(=O)Nc1ccc(-n2nc(C(F)(F)F)cc2-c2ccc3c(ccc4ccccc43)c2)cc1 + Oc1cc(-c2nc(-c3ccccc3)[nH]c2-c2ccncc2)ccc1Cl [L779450] (first compound 1 µM, partner dose 0.2 µM) | 176 | 137 | 106 | 102 | 75.7 | 397
